Source: publication PMC10177021

Sequences of proteins named here, by UniProt entry; tags and fusion partners are left off. A change or cut given only in a name is not applied to a line headed by its entry. Residues count along the entry.
UniProt P97772, residues 21-1199: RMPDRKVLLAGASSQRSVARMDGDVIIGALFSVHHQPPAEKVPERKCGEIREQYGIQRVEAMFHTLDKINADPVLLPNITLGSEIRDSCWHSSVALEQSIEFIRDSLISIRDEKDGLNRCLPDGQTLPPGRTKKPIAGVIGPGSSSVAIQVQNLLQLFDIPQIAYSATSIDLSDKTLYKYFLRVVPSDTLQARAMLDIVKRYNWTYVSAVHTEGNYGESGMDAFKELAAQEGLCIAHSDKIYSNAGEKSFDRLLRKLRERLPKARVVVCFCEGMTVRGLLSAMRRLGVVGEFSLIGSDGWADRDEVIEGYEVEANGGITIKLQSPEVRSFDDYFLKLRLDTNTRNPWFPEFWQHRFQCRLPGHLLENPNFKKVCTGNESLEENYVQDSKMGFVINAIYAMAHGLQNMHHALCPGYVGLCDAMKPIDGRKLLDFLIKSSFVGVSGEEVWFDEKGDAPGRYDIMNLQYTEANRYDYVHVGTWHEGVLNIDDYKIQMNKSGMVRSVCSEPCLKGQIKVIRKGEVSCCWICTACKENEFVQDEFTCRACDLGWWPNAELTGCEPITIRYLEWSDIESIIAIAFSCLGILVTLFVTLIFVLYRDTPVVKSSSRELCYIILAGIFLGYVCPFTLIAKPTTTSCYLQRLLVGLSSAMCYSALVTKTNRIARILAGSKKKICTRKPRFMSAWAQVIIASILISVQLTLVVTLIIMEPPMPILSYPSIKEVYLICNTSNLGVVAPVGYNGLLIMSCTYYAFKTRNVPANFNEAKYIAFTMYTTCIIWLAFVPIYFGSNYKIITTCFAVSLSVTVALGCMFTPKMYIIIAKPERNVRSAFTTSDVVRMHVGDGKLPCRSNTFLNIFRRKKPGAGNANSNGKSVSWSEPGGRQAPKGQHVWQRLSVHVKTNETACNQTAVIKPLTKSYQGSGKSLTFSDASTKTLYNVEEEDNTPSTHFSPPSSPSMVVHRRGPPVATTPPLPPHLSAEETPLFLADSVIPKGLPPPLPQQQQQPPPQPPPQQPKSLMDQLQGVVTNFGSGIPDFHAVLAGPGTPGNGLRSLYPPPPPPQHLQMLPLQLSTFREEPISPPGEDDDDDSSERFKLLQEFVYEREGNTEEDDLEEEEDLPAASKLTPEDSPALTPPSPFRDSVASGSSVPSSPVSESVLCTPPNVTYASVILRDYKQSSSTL

Molecular target: metabotropic glutamate receptor 1, mGlu1α variant (mouse (endogenous in cerebellum)) (UniProt P97772)
Experiment: affinity purification with mass spectrometry; mGlu1α immunoprecipitated with Af811-1 (three replicates) or Af660-1 (three replicates) and Dynabeads Protein-A from detergent lysates (0.5% deoxycholate, 1% NP-40, 0.1% SDS) of the mouse cerebellar P2 fraction; LC-MS/MS of eluates; proteins also found from Grm1-KO lysates removed

Row | binding | Binder
1 | binds | phospholipase Cβ4 (enzyme, UniProt Q91UZ1 1-1175) MAKPYEFNWQKEVPSFLQEGAVFDRYEEESFVFEPNCLFKVDEFGFFLTWKSEGKEGQVLECSLINSIRQAAIPKDPKILAALEAVGKSENDLEGRILCVCSGTDLVNIGFTYMVAENPEVTKQWVEGLRSIIHNFRANNVSPMTCLKKHWMKLAFLTNTTGKIPVRSITRTFASGKTEKVIFQALKELGLPSGKNDEIEPAAFTYEKFYELTQKICPRTDIEDLFKKINGDKTDYLTVDQLVSFLNEHQRDPRLNEILFPFYDAKRAMQIIEMYEPDEELKKKGLISSDGFCRYLMSDENAPVFLDRLELYQEMDHPLAHYFISSSHNTYLTGRQFGGKSSVEMYRQVLLAGCRCVELDCWDGKGEDQEPIITHGKAMCTDILFKDVIQAIKETAFVTSEYPVILSFENHCSKYQQYKMSKYCEDLFGDLLLKQALESHPLEPGRPLPSPNDLKRKILIKNKRLKPEVEKKQLEALKSMMEAGESAAPASILEDDNEEEIESADQEEEAHPEYKFGNELSADDYSHKEAVANSVKKGLVTVEDEQAWMASYKYVGATTNIHPYLSTMINYAQPVKFQGFHVAEERNIHYNMSSFNESVGLGYLKTHAIEFVNYNKRQMSRIYPKGGRVDSSNYMPQIFWNAGCQMVSLNYQTPDLAMQLNQGKFEYNGSCGYLLKPDFMRRPDRTFDPFSETPVDGVIAATCSVQVISGQFLSDKKIGTYVEVDMYGLPTDTIRKEFRTRMVMNNGLNPVYNEESFVFRKVILPDLAVLRIAVYDDNNKLIGQRILPLDGLQAGYRHISLRNEGNKPLSLPTIFCNIVLKTYVPDGFGDIVDALSDPKKFLSITEKRADQMRAMGIETSDIADVPSDTSKNDKKGKANPAKANVTPQSSSELRPTTTAALGSGQEAKKGIELIPQVRIEDLKQMKAYLKHLKKQQKELNSLKKKHAKEHSTMQKLHCTQVDKIVAQYDKEKSTHEKILEKAMKKKGGSNCLEIKKETEIKIQTLTTDHKSKVKEIVAQHTKEWSEMINTHSAEEQEIRDLHLSQQCELLRKLLINAHEQQTQQLKLSHDRESKEMRAHQAKISMENSKAISQDKSIKNKAERERRVRELNSSNTKKFLEERKRLAMKQSKEMDQLKKVQLEHLEFLEKQNEQAKEMQQMVKLEAEMDRRPATVV
2 | binds | short Transient Receptor Potential Cation channel C3 (protein, UniProt Q9QZC1 1-910) MSTKVKKCREPARVTLPAPEEEEDGEAEGGESQRRRRGWRGVNGGLEPPCPRAPPSPGPDASSEGSPSRWRTAGMRDKGRRQAVRGPAFMFGARGPSLTAEEERFLDAAEYGNIPVVRKMLEESRTLNVNCVDYMGQNALQLAVGNEHLEVTELLLKKENLARIGDALLLAISKGYVRIVEAILGHPGFAASRRLTLSPCEQELRDDDFYAYDEDGTRFSPDITPIILAAHCHKYEVVHLLLLKGARIERPHDYFCRCSDCAEKQRLDAFSHSRSRINAYKGLASPAYLSLSSEDPVLTALELSNELAKLANIEKEFKNDYRKLSMQCKDFVVGVLDLCRDSEEVEAILNGDLESAEPLERHGHKASLSRVKLAIKYEVKKFVAHPNCQQQLLTIWYENLSGLREQTIAIKCLVVLVVALGLPFLAIGYWIAPCSRLGKILRSPFMKFVAHAASFIIFLGLLVFNASDRFEGITTLPNITVIDYPKQIFRVKTTQFTWTEMLIMVWVLGMMWSECKELWLEGPREYIVQLWNVLDFGMLSIFIAAFTARFLAFLQATKAQQYVDSHVQESDLSEVTLPPEVQYFTYARDKWLPSDPQIISEGLYAIAVVLSFSRIAYILPANESFGPLQISLGRTVKDIFKFMVLFIMVFLAFMIGMFILYSYYLGAKVNPAFTTVEESFKTLFWSIFGLSEVTSVVLKYDHKFIENIGYVLYGIYNVTMVVVLLNMLIAMINSSYQEIEDDSDVEWKFARSKLWLSYFDDGKTLPPPFSLVPSPKSFVYFIMRITNFSKCRRRRLQKDLELGMGNSKSRLNLFTQSNSRVFESHSFNSILNQPTRYQQIMKRLIKRYVLKAQVDKENDEVNEGELKEIKQDISSLRYELLEDKSQATEELAILIHKLSEKLNPSVLRCE
3 | binds | inositol polyphosphate-5-phosphatase A (enzyme, UniProt Q7TNC9-2 1-422) MAGKAAAPGTAVLLVTANVGSLFDDPENLQKNWLREFYQVLHTHKPHFMALHCQEFGGKNYEASMSHVDKFVKELLSSDAMKEYNRARVYLDENYKSQEHFTALGSFYFLHESLKNIYQFDFKAKKYKKVTGKEIYSDTLESTPMLEKEKFPQDYFPECKWSRKGFIRTRWCIADCAFDLVNIHLFHDASNLVAWETSPSVYSGVRHKALGYVLDRIIDQRFEKVSYFVFGDFNFRLDSKSVVETLCTKATMQTVRAADTNEVVKLIFRESDNDRKVVLQLEKKLFDYFNQDVFRDNNGTALLEFDKELSVFKDRLYELDISFPPSYPYSEDSSQGEQYMNTRCPAWCDRILMSLSAKELVLKSESEEKVATYDHIGPNVCMGDHKPVFLAFRIAPGAGKRCQRRERILERPPCSSVSNSSS
4 | binds | solute carrier family 12 member 5 (protein, UniProt Q91V14-1 1-1138) MSRRFTVTSLPPAASAASADPESRRHSVADPRRLPREDVKGDGNPKESSPFINSTDTEKGREYDGRNMALFEEEMDTSPMVSSLLSGLANYTNLPQGSREHEEAENNEGGKKKPVQAPRMGTFMGVYLPCLQNIFGVILFLRLTWVVGIAGIMESFCMVFICCSCTMLTAISMSAIATNGVVPAGGSYYMISRSLGPEFGGAVGLCFYLGTTFAGAMYILGTIEILLAYLFPAMAIFKAEDASGEAAAMLNNMRVYGTCVLTCMATVVFVGVKYVNKFALVFLGCVILSILAIYAGVIKSAFDPPNFPICLLGNRTLSRHGFDVCAKLAWEGNETVTTRLWGLFCSSRLLNATCDEYFTRNNVTEIQGIPGAASGLIKENLWSSYLTKGVIVERRGMPSVGLADGTPVDMDHPYVFSDMTSYFTLLVGIYFPSVTGIMAGSNRSGDLRDAQKSIPTGTILAIATTSAVYISSVVLFGACIEGVVLRDKFGEAVNGNLVVGTLAWPSPWVIVIGSFFSTCGAGLQSLTGAPRLLQAISRDGIVPFLQVFGHGKANGEPTWALLLTACICEIGILIASLDEVAPILSMFFLMCYMFVNLACAVQTLLRTPNWRPRFRYYHWTLSFLGMSLCLALMFICSWYYALVAMLIAGLIYKYIEYRGAEKEWGDGIRGLSLSAARYALLRLEEGPPHTKNWRPQLLVLVRVDQDQNVVHPQLLSLTSQLKAGKGLTIVGSVLEGTFLDNHPQAQRAEESIRRLMEAEKVKGFCQVVISSNLRDGVSHLIQSGGLGGLQHNTVLVGWPRNWRQKEDHQTWRNFIELVRETTAGHLALLVTKNVSMFPGNPERFSEGSIDVWWIVHDGGMLMLLPFLLRHHKVWRKCKMRIFTVAQMDDNSIQMKKDLTTFLYHLRITAEVEVVEMHESDISAYTYEKTLVMEQRSQILKQMHLTKNEREREIQSITDESRGSIRRKNPANPRLRLNVPEETACDNEEKPEEEVQLIHDQSAPSCPSSSPSPGEEPEGERETDPEVHLTWTKDKSVAEKNKGPSPVSSEGIKDFFSMKPEWENLNQSNVRRMHTAVRLNEVIVNKSRDAKLVLLNMPGPPRNRNGDENYMEFLEVLTEQLDRVMLVRGGGREVITIYS
5 | binds | ρ guanine nucleotide exchange factor 33 (protein, UniProt Q8BW86-1 1-850) MEKSKAKQGENEHMPVNNPSTQIYQLQALASELKTGFTEAMQELTRIQHGEYALEEKVKSCRCSMEEKVTEMKNSLNYFKEELSNAMSMIQAITSKQEEMQQKIEQLQQEKRRESRKVKAKKAQKEEHGAQAGPASAPAPGSAPTQGSPFRSINVPEAGLPSDDFTNMLPSQNYEKAQESRSVHVGDSNVKGMMGPGVNPTTPESDENLKPSLSAEIQSKGHHTPGLWRQPKEGKEWGEEYVTKDHPDKLKDAGQGRHSSLENVLCETSLAAKRQTVALELLESERKYVINISLILKIKATFQGSDGKRNPKERSLFPGSLRYLVQQHLDLLHALQERVLKWPRQGVLGDLFLKLTNDENNFLDYYVAYLRDLPECISLVHVVVLKEGDEEIKSDIYTLFFHIVQRIPEYLIHLQNVLKFTEQEHPDYYLLLVCVQRLRVFISHYTLLFQCNEDLLIQKRKKLKKSSMAKLYKGLASQCANAGQDASPNAGQEAVHDSGVHSEEMLQPYPSSSSSAPAVSHLMAPAKKGQQQQSLMESMQPGKPGDWELEGRKHERPESLLAPAQFCAAEQDVKALAGPLQAIPEMDFEPSSAEPLGNVERSLRGPPELLPDARGFVPAGYEEFEYGGEIFALPAPYDEEPFQAPALFDNCSPASSESSLDICFLRPVSFAMEAERPEHALQPLPKSATSPASSSGAYKLEAAQAQAHGKAKPLSRSLKEFPRTPPAEGVAPRLYSTRSSSGGRAPLKVERAPAPHGPAAAAAASRGAPRTFFPQQRSQSEKQTYLEEMHLEDATRFCPKEERESEQTSFSDQNPRQDQKGGFRSSFRKLFKKKNGNSTGEDFCGPWGWW
6 | binds | 14-3-3 protein θ (protein, UniProt P68254-1 1-245) MEKTELIQKAKLAEQAERYDDMATCMKAVTEQGAELSNEERNLLSVAYKNVVGGRRSAWRVISSIEQKTDTSDKKLQLIKDYREKVESELRSICTTVLELLDKYLIANATNPESKVFYLKMKGDYFRYLAEVACGDDRKQTIENSQGAYQEAFDISKKEMQPTHPIRLGLALNFSVFYYEILNNPELACTLAKTAFDEAIAELDTLNEDSYKDSTLIMQLLRDNLTLWTSDSAGEECDAAEGAEN
7 | binds | excitatory amino acid transporter 1 (protein, UniProt P56564 1-543) MTKSNGEEPRMGGRMERLQQGVRKRTLLAKKKVQSLTKEDVKSYLFRNAFVLLTVTAVIVGTILGFALRPYKMSYREVKYFSFPGELLMRMLQMLVLPLIISSLVTGMAALDSKASGKMGMRAVVYYMTTTIIAVVIGIIIVIIIHPGKGTKENMYREGKIVQVTAADAFLDLIRNMFPPNLVEACFKQFKTSYEKRSFKVPIQSNETLLGAVINNVSEAMETLTRIREEMVPVPGSVNGVNALGLVVFSMCFGFVIGNMKEQGQALREFFDSLNEAIMRLVAVIMWYAPLGILFLIAGKIVEMEDMGVIGGQLAMYTVTVIVGLLIHAVIVLPLLYFLVTRKNPWVFIGGLLQALITALGTSSSSATLPITFKCLEENNGVDKRITRFVLPVGATINMDGTALYEALAAIFIAQVNNFDLNFGQIITISITATAASIGAAGIPQAGLVTMVIVLTSVGLPTDDITLIIAVDWFLDRLRTTTNVLGDSLGAGIVEHLSRHELKNRDVEMGNSVIEENEMKKPYQLIAQDNEPEKPVADSETKM

These are yes or no findings as the source states them, for the method shown. In cells and extracts the contact can be indirect. Here binding means that the protein was enriched with, or labelled near, the bait; the list need not be complete.
